Source: paper PMC13558869
Results are given in words; binding and its absence hold for the method and conditions named. In cells and extracts the contact can be indirect. A yes stands for co-enrichment or nearness to the bait. Other partners may have been found. For some assays here: No binding means not detected with the bait. For some assays here: Tags and fused reporters may be left off the sequences shown.

T1: UltraID_ZFP36L1 (UltraID fused to the N-terminus of ZFP36L1, co-expressed with GFP through P2A) (UniProt Q07352)
T1 sequence: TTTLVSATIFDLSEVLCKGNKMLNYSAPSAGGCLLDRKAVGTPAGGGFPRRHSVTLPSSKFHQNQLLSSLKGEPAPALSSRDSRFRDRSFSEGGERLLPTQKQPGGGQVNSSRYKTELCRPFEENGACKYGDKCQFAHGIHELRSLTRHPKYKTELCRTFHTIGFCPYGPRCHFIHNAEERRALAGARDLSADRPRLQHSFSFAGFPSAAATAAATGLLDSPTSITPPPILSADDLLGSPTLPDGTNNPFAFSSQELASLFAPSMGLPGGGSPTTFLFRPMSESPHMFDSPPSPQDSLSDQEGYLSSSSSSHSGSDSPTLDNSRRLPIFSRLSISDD

T2: ZFP36L1 (human (endogenous in primary T cells)) (UniProt Q07352)
T2 sequence: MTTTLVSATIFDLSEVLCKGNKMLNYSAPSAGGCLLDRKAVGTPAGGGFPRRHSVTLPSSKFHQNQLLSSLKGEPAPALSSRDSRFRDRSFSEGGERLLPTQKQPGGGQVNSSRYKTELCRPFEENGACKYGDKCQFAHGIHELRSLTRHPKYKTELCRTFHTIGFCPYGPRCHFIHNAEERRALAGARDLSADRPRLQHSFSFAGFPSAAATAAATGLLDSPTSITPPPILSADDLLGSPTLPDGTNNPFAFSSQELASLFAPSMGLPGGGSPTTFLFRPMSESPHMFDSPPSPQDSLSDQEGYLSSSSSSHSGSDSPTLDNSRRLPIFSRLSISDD

B1: CSTF2T (protein, UniProt Q9H0L4 1-616)
chain: MSSLAVRDPAMDRSLRSVFVGNIPYEATEEQLKDIFSEVGSVVSFRLVYDRETGKPKGYGFCEYQDQETALSAMRNLNGREFSGRALRVDNAASEKNKEELKSLGPAAPIIDSPYGDPIDPEDAPESITRAVASLPPEQMFELMKQMKLCVQNSHQEARNMLLQNPQLAYALLQAQVVMRIMDPEIALKILHRKIHVTPLIPGKSQSVSVSGPGPGPGPGLCPGPNVLLNQQNPPAPQPQHLARRPVKDIPPLMQTPIQGGIPAPGPIPAAVPGAGPGSLTPGGAMQPQLGMPGVGPVPLERGQVQMSDPRAPIPRGPVTPGGLPPRGLLGDAPNDPRGGTLLSVTGEVEPRGYLGPPHQGPPMHHASGHDTRGPSSHEMRGGPLGDPRLLIGEPRGPMIDQRGLPMDGRGGRDSRAMETRAMETEVLETRVMERRGMETCAMETRGMEARGMDARGLEMRGPVPSSRGPMTGGIQGPGPINIGAGGPPQGPRQVPGISGVGNPGAGMQGTGIQGTGMQGAGIQGGGMQGAGIQGVSIQGGGIQGGGIQGASKQGGSQPSSFSPGQSQVTPQDQEKAALIMQVLQLTADQIAMLPPEQRQSILILKEQIQKSTGAS
B2: ATXN2L (protein, UniProt Q8WWM7 1-1075)
chain: MLKPQPLQQPSQPQQPPPTQQAVARRPPGGTSPPNGGLPGPLATSAAPPGPPAAASPCLGPVAAAGSGLRRGAEGILAPQPPPPQQHQERPGAAAIGSARGQSTGKGPPQSPVFEGVYNNSRMLHFLTAVVGSTCDVKVKNGTTYEGIFKTLSSKFELAVDAVHRKASEPAGGPRREDIVDTMVFKPSDVMLVHFRNVDFNYATKDKFTDSAIAMNSKVNGEHKEKVLQRWEGGDSNSDDYDLESDMSNGWDPNEMFKFNEENYGVKTTYDSSLSSYTVPLEKDNSEEFRQRELRAAQLAREIESSPQYRLRIAMENDDGRTEEEKHSAVQRQGSGRESPSLASREGKYIPLPQRVREGPRGGVRCSSSRGGRPGLSSLPPRGPHHLDNSSPGPGSEARGINGGPSRMSPKAQRPLRGAKTLSSPSNRPSGETSVPPPPAVGRMYPPRSPKSAAPAPISASCPEPPIGSAVPTSSASIPVTSSVSDPGVGSISPASPKISLAPTDVKELSTKEPGRTLEPQELARIAGKVPGLQNEQKRFQLEELRKFGAQFKLQPSSSPENSLDPFPPRILKEEPKGKEKEVDGLLTSEPMGSPVSSKTESVSDKEDKPPLAPSGGTEGPEQPPPPCPSQTGSPPVGLIKGEDKDEGPVAEQVKKSTLNPNAKEFNPTKPLLSVNKSTSTPTSPGPRTHSTPSIPVLTAGQSGLYSPQYISYIPQIHMGPAVQAPQMYPYPVSNSVPGQQGKYRGAKGSLPPQRSDQHQPASAPPMMQAAAAAGPPLVAATPYSSYIPYNPQQFPGQPAMMQPMAHYPSQPVFAPMLQSNPRMLTSGSHPQAIVSSSTPQYPSAEQPTPQALYATVHQSYPHHATQLHAHQPQPATTPTGSQPQSQHAAPSPVQHQAGQAPHLGSGQPQQNLYHPGALTGTPPSLPPGPSAQSPQSSFPQPAAVYAIHHQQLPHGFTNMAHVTQAHVQTGITAAPPPHPGAPHPPQVMLLHPPQSHGGPPQGAVPQSGVPALSASTPSPYPYIGHPQGEQPGQAPGFPGGADDRIREFSLAGGIWHGRAEGLQVGQDARVLGGE
B3: UBAP2 (protein, UniProt Q5T6F2 1-1119)
chain: MMTSVSSDHCRGAREKPQISAAQSTQPQKQVVQATAEQMRLAQVIFDKNDSDFEAKVKQLMEVTGKNQDECIVALHDCNGDVNKAINILLEGNSDTTSWETVGCKKKNFAKENSENKENREKKSEKESSRGRGNNNRKGRGGNRGREFRGEENGIDCNQVDKPSDRGKRARGRGFGRGRGRGAGRFSTQGMGTFNPADYSDSTSTDVCGTKLVVWEAAQNGADEGTELASNTHNIAQDLSNKSSYGLKGAWKNSVEEWTTEDWTEDLSETKVFTASSAPAENHILPGQSIDLVALLQKPVPHSQASEANSFETSQQQGFGQALVFTNSQHNNQMAPGTGSSTAVNSCSPQSLSSVLGSGFGELAPPKMANITSSQILDQLKAPSLGQFTTTPSTQQNSTSHPTTTTSWDLKPPTSQSSVLSHLDFKSQPEPSPVLSQLSQRQQHQSQAVTVPPPGLESFPSQAKLRESTPGDSPSTVNKLLQLPSTTIENISVSVHQPQPKHIKLAKRRIPPASKIPASAVEMPGSADVTGLNVQFGALEFGSEPSLSEFGSAPSSENSNQIPISLYSKSLSEPLNTSLSMTSAVQNSTYTTSVITSCSLTSSSLNSASPVAMSSSYDQSSVHNRIPYQSPVSSSESAPGTIMNGHGGGRSQQTLDTPKTTGPPSALPSVSSLPSTTSCTALLPSTSQHTGDLTSSPLSQLSSSLSSHQSSLSAHAALSSSTSHTHASVESASSHQSSATFSTAATSVSSSASSGASLSSSMNTANSLCLGGTPASASSSSSRAAPLVTSGKAPPNLPQGVPPLLHNQYLVGPGGLLPAYPIYGYDELQMLQSRLPVDYYGIPFAAPTALASRDGSLANNPYPGDVTKFGRGDSASPAPATTPAQPQQSQSQTHHTAQQPFVNPALPPGYSYTGLPYYTGMPSAFQYGPTMFVPPASAKQHGVNLSTPTPPFQQASGYGQHGYSTGYDDLTQGTAAGDYSKGGYAGSSQAPNKSAGSGPGKGVSVSSSTTGLPDMTGSVYNKTQTFDKQGFHAGTPPPFSLPSVLGSTGPLASGAAPGYAPPPFLHILPAHQQPHSQLLHHHLPQDAQSGSGQRSQPSSLQPKSQASKPAYGNSPYWTN
B4: DCP1B (protein, UniProt Q8IZD4 1-617)
chain: MAAVAAGGLVGKGRDISLAALQRHDPYINRIVDVASQVALYTFGHRANEWEKTDVEGTLFVYTRSASPKHGFTIMNRLSMENRTEPITKDLDFQLQDPFLLYRNARLSIYGIWFYDKEECQRIAELMKNLTQYEQLKAHQGTGAGISPVILNSGEGKEVDILRMLIKAKDEYTKCKTCSEPKKITSSSAIYDNPNLIKPIPVKPSENQQQRIPQPNQTLDPEPQHLSLTALFGKQDKATCQETVEPPQTLHQQQQQQQQQQEKLPIRQGVVRSLSYEEPRRHSPPIEKQLCPAIQKLMVRSADLHPLSELPENRPCENGSTHSAGEFFTGPVQPGSPHNIGTSRGVQNASRTQNLFEKLQSTPGAANKCDPSTPAPASSAALNRSRAPTSVTPVAPGKGLAQPPQAYFNGSLPPQTVGHQAHGREQSTLPRQTLPISGSQTGSSGVISPQELLKKLQIVQQEQQLHASNRPALAAKFPVLAQSSGTGKPLESWINKTPNTEQQTPLFQVISPQRIPATAAPSLLMSPMVFAQPTSVPPKERESGLLPVGGQEPPAAATSLLLPIQSPEPSVITSSPLTKLQLQEALLYLIQNDDNFLNIIYEAYLFSMTQAAMKKTM
B5: GIGYF2 (protein, UniProt Q6Y7W6 1-1299)
chain: MAAETQTLNFGPEWLRALSSGGSITSPPLSPALPKYKLADYRYGREEMLALFLKDNKIPSDLLDKEFLPILQEEPLPPLALVPFTEEEQRNFSMSVNSAAVLRLTGRGGGGTVVGAPRGRSSSRGRGRGRGECGFYQRSFDEVEGVFGRGGGREMHRSQSWEERGDRRFEKPGRKDVGRPNFEEGGPTSVGRKHEFIRSESENWRIFREEQNGEDEDGGWRLAGSRRDGERWRPHSPDGPRSAGWREHMERRRRFEFDFRDRDDERGYRRVRSGSGSIDDDRDSLPEWCLEDAEEEMGTFDSSGAFLSLKKVQKEPIPEEQEMDFRPVDEGEECSDSEGSHNEEAKEPDKTNKKEGEKTDRVGVEASEETPQTSSSSARPGTPSDHQSQEASQFERKDEPKTEQTEKAEEETRMENSLPAKVPSRGDEMVADVQQPLSQIPSDTASPLLILPPPVPNPSPTLRPVETPVVGAPGMGSVSTEPDDEEGLKHLEQQAEKMVAYLQDSALDDERLASKLQEHRAKGVSIPLMHEAMQKWYYKDPQGEIQGPFNNQEMAEWFQAGYFTMSLLVKRACDESFQPLGDIMKMWGRVPFSPGPAPPPHMGELDQERLTRQQELTALYQMQHLQYQQFLIQQQYAQVLAQQQKAALSSQQQQQLALLLQQFQTLKMRISDQNIIPSVTRSVSVPDTGSIWELQPTASQPTVWEGGSVWDLPLDTTTPGPALEQLQQLEKAKAAKLEQERREAEMRAKREEEERKRQEELRRQQEEILRRQQEEERKRREEEELARRKQEEALRRQREQEIALRRQREEEERQQQEEALRRLEERRREEEERRKQEELLRKQEEEAAKWAREEEEAQRRLEENRLRMEEEAARLRHEEEERKRKELEVQRQKELMRQRQQQQEALRRLQQQQQQQQLAQMKLPSSSTWGQQSNTTACQSQATLSLAEIQKLEEERERQLREEQRRQQRELMKALQQQQQQQQQKLSGWGNVSKPSGTTKSLLEIQQEEARQMQKQQQQQQQHQQPNRARNNTHSNLHTSIGNSVWGSINTGPPNQWASDLVSSIWSNADTKNSNMGFWDDAVKEVGPRNSTNKNKNNASLSKSVGVSNRQNKKVEEEEKLLKLFQGVNKAQDGFTQWCEQMLHALNTANNLDVPTFVSFLKEVESPYEVHDYIRAYLGDTSEAKEFAKQFLERRAKQKANQQRQQQQLPQQQQQQPPQQPPQQPQQQDSVWGMNHSTLHSVFQTNQSNNQQSNFEAVQSGKKKKKQKMVRADPSLLGFSVNASSERLNMGEIETLDDY

Columns and labels:
[1] = biological target: T1, UltraID_ZFP36L1 (UltraID fused to the N-terminus of ZFP36L1, co-expressed with GFP through P2A); test: proximity labelling; time course: UltraID_L1 T cells re-activated with αCD3/αCD28 for 0, 2, 5, 16 h; biotin added for 2 h, for 3 h (2-5 h) or for 9 h (5-16 h); streptavidin capture, MS; supervised classification into shapes
[2] = biological target: T2, ZFP36L1 (human (endogenous in primary T cells)); test: affinity purification with mass spectrometry; Co-IP of endogenous ZFP36L1 with 10 μg anti-ZFP36L1 (1A3) or IgG control on Protein A Dynabeads, 4 h at 4°C, from cytoplasmic (1% digitonin) lysates of αCD3/αCD28-activated human CD3+ T cells at 0, 2, 5, 16 h; lysates untreated or treated with 200 U/ml RNAse A throughout; MS
[3] = biological target: T1, UltraID_ZFP36L1 (UltraID fused to the N-terminus of ZFP36L1, co-expressed with GFP through P2A); test: proximity labelling; UltraID_L1 in retrovirally transduced primary human T cells, rested or re-activated 16 h with αCD3/αCD28, with or without 500 μM biotin; biotinylated proteins captured from lysate on streptavidin beads and identified by MS; controls UltraID_GFP and no biotin; T cell screens 1 and 2 (the network of Fig 3A also draws on the Jurkat screen)

Binder	binding [1]	binding [2]	binding [3]
B1	binds	no binding	binds
B2	binds		binds
B3	binds		binds
B4	binds		binds
B5	binds		binds
